In PubChem BioAssay AID1259415 (National Center for Advancing Translational Sciences (NCATS), 2018):
In all, about 410,000 compounds went through this assay and about 18,000 (4.4%) were called active. Inconclusive results, whose numbers are uncertain, are shown with a selection of clear calls. No stated cut-off is given here; in the data, active means activity change below about -60%; inconclusive means no clear call, values can overlap the other calls; inactive means above about -39%.

Test: qHTS Assay for inhibitors of the human cytomegalovirus (HCMV)
Details: HFF cells, HCMV-luciferase reporter, 72 h; at 57.5 µM; hits give low values
Outline: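 Human foreskin fibroblasts infected with luciferase-reporter HCMV at MOI 1 PFU/cell, compounds at two doses. Luciferase measured 72 h post infection; normalized to buffer-only basal and Salinomycin (10uM) controls.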
On the % scale 0 is the no-effect control and ±100 the full control effect.

Row | SMILES | activity change, negative = inhibition
1 | Cc1ccc(NC(=O)C2Cc3ccccc3N2C(=O)c2ccccc2)cc1Cl (stereo unspecified) | inactive: -11%
2 | O=C(COc1ccc(Cl)cc1Br)Nc1cccc(S(=O)(=O)N2CCCC2)c1 | inactive: -13%
3 | COc1ccc(C(=O)Oc2ccc(-c3nnco3)cc2)cc1S(=O)(=O)N1CCOCC1 | active: -83.8%
4 | Cc1ccc(S(=O)(=O)N2CCC3(CC2)OCCO3)s1 | inactive: 35.2%
5 | Cc1ccc(CCNC(=O)CN2CCN(Cc3ccccc3F)C2=O)cc1 | inconclusive: -41.6%
6 | Cc1ccc(N(CC(=O)NCc2ccc(F)cc2)S(=O)(=O)c2cccs2)cc1 | inconclusive: -50.2%
7 | COc1ccc(F)cc1S(=O)(=O)NCCc1csc(-c2ccc(Cl)cc2)n1 | inactive: -14.6%
8 | CC(=O)c1ccc(NC(=O)CSc2cn(CC(=O)N3CCCCC3)c3ccccc23)cc1 | inactive: 12.6%
9 | Cc1cc(/C=N\NC(=O)CC(=O)NC2CCCCC2)c(C)n1-c1cccc(Cl)c1Cl | inactive: -32.6%
10 | O=C(NCc1ccccc1)c1cc(C2CCCCN2C(=O)c2ccc3c(c2)CCO3)on1 (stereo unspecified) | inactive: 8.87%
11 | O=C1CCC(C(=O)NCCN2C(=O)S/C(=C\c3cccnc3)C2=O)=NN1 | inconclusive: -49.1%
12 | Cc1cccc(NC(=O)c2ccc(-n3ccnc3)nc2)c1 | inconclusive: -40.2%
13 | COc1cccc(CN(C)C(=O)CNC(=O)c2ccc(-c3ccccc3)cc2)c1OC | active: -71.4%
14 | Cn1c(SCC(=O)N2CCN(c3ccccc3)CC2)nnc1-c1c[nH]c2ccccc12 | active: -79.6%
15 | Cc1nn(-c2ccc(N3CCCC3)nn2)c(C)c1CCC(=O)NCc1ccc(OC(C)C)cc1 | inconclusive: -51.2%
16 | Cc1cccc(OCC(=O)Nc2cccc3nsnc23)c1 | inconclusive: -43.7%
17 | O=S(=O)(NC1CCN(S(=O)(=O)c2c(F)cccc2F)C1)c1ccc2c(c1)OCCO2 (stereo unspecified) | active: -77.7%
18 | O=C(NCCC1=CCCCC1)c1ccc2c(c1)N(Cc1cccc(Cl)c1)C(=O)c1ccccc1S2(=O)=O | inactive: -9.94%
19 | CC1CCCCC1NC(=O)COC(=O)c1ccc2ncsc2c1 (stereo unspecified) | inactive: -11.8%
20 | Cc1ccc2nc(/C(C#N)=C\c3ccc(Oc4ccc(C(F)(F)F)cc4[N+](=O)[O-])cc3)[nH]c2c1 | inconclusive: -43.6%
21 | CSc1ccc(S(=O)(=O)Nc2ccc3c4c(cccc24)CC3)cc1 | active: -81.6%
22 | CCOc1ccc2nc3sc(C(=O)N4CCN(C)CC4)c(N)c3cc2c1 | inconclusive: -40.8%

Six neighbouring records from above:
Row | SMILES | activity change, negative = inhibition
11 | O=C1CCC(C(=O)NCCN2C(=O)S/C(=C\c3cccnc3)C2=O)=NN1 | inconclusive: -49.1%
12 | Cc1cccc(NC(=O)c2ccc(-n3ccnc3)nc2)c1 | inconclusive: -40.2%
13 | COc1cccc(CN(C)C(=O)CNC(=O)c2ccc(-c3ccccc3)cc2)c1OC | active: -71.4%
14 | Cn1c(SCC(=O)N2CCN(c3ccccc3)CC2)nnc1-c1c[nH]c2ccccc12 | active: -79.6%
15 | Cc1nn(-c2ccc(N3CCCC3)nn2)c(C)c1CCC(=O)NCc1ccc(OC(C)C)cc1 | inconclusive: -51.2%
16 | Cc1cccc(OCC(=O)Nc2cccc3nsnc23)c1 | inconclusive: -43.7%

Later entries:

Row | SMILES | activity change, negative = inhibition
23 | CCN(CC)S(=O)(=O)c1ccc(N2CCOCC2)c(NC(=O)Cc2ccccc2)c1 | inconclusive: -47.9%
24 | CCOC(=O)C1=C(CN(CC)Cc2ccccc2)NC(=O)NC1c1ccc(OC(C)C)cc1 (stereo unspecified) | inconclusive: -40%
25 | COc1ccc(/C=C/c2nc3cc(-c4ccccc4)ccc3o2)cc1O | inconclusive: -41.8%
26 | Cc1ccc(C)c(NC(=O)CN(C)C(=O)c2cc3c(s2)CCCCC3)c1 | inactive: -21.4%
27 | C/C(CC(=O)Nc1ccc(F)cc1)=N\NC(=O)c1ccccn1 | inconclusive: -44.8%
28 | Cc1cc(C)cc(C(=O)NCC(=O)OCC(=O)NC2CC2)c1 | inconclusive: -52%
29 | COc1ccc(CNC(=O)c2ccc(CS(=O)(=O)Cc3ccccc3F)o2)cc1 | inconclusive: -40.7%
30 | Cc1ccc(-n2nc3c(=O)n(CCCC(=O)NCCN4CCN(C)CC4)nc(C)c3c2C)cc1 | inconclusive: -56.8%
31 | COc1ccc(OC)c(S(=O)(=O)N2CCN(c3c(C)cccc3C)CC2)c1 | inconclusive: -54.1%
32 | CN(C)C(CNC(=O)CCCN1C(=O)c2cccc3cccc(c23)C1=O)c1ccccc1 (stereo unspecified) | inconclusive: -46.6%
33 | O=C1c2ccccc2S(=O)(=O)N1CCOc1ccc(F)cc1 | inactive: 28.1%
34 | CCCn1c(SCC(=O)N2c3ccccc3Sc3ccccc32)nc2c1c(=O)n(C)c(=O)n2C | inactive: -26.2%
35 | C=CCOc1ccc(CNc2nn[nH]n2)cc1 | inactive: 8.72%
36 | CC1=C(C(=O)Nc2ccc(F)cc2F)C2(CCCCCC2)OC1=O | inconclusive: 0%
37 | O=c1[nH]c(C2CCCN(S(=O)(=O)Cc3ccccc3)C2)nc2c1nnn2Cc1cccc(Cl)c1 (stereo unspecified) | inconclusive: -45.8%
38 | CN(C)c1ccc(/C=N/n2c(COc3ccccc3)n[nH]c2=S)cc1 | inactive: -26.3%
39 | CCOC(=O)c1ccc(N2C(=O)c3n[nH]c(-c4ccco4)c3C2c2ccc(F)cc2)cc1 (stereo unspecified) | active: -88.5%
40 | O=C(CSc1nccn1Cc1ccc(Cl)cc1)NCc1ccccc1 | inactive: -18.2%
41 | COc1ccc(OC)c(NC(=O)CN2CCCN(Cc3cc(C)ccc3C)S2(=O)=O)c1 | inactive: 0%
42 | CCCN(C)C1CN(Cc2cn(Cc3cccc(C(F)(F)F)c3)nn2)S(=O)(=O)C1 (stereo unspecified) | active: -99.6%
43 | CN1CCN(S(=O)(=O)c2cnccc2N2CCN(c3cccc(Cl)c3)CC2)CC1 | inconclusive: -44.3%
44 | O=C(Nc1ccccc1N1CCN(C(=O)c2ccc(Cl)cc2)CC1)c1cccc([N+](=O)[O-])c1 | active: -87.9%

Row | SMILES | activity change, negative = inhibition
45 | CC(=O)Oc1ccc(-c2nc3cc(Cl)ccc3c(=O)o2)cc1 | active: -78.4%
46 | O=C(Cc1csc(NC(=O)Nc2ccc(Cl)cc2)n1)NC1CCCC1 | inconclusive: -40.5%
47 | COc1ccc(-c2cc3ccccc3n2CC(O)CN2CCCCC2)cc1 (stereo unspecified) | active: -81.2%
48 | O=C(CN1CCOCC1)Nc1ccc(Oc2ccccc2)cc1 | inactive: 13.2%
49 | Cc1ccc(N(C(=O)c2snc(C(N)=O)c2N)C(C(=O)NC2CCCC2)c2ccncc2)cc1 (stereo unspecified) | inconclusive: -54.9%
50 | CC(c1ccccc1)N1C(=O)c2ccc(C(=O)Nc3ccccc3C(=O)O)cc2C1=O (stereo unspecified) | active: -80.2%
51 | Clc1ccc(-c2csc(Nc3ccccc3)[n+]2Cc2ccco2)c(Cl)c1 | inactive: -37.6%
52 | COc1cc2c(cc1OC)-c1c3c(cc4c1[C@@H](C2)N(C)CC4)OCO3 | active: -75.6%
53 | CCCCOC(=O)Oc1ccc2c(=O)c(Oc3cccc(C)c3)coc2c1 | inconclusive: -46.1%
54 | Cc1ccc(Nc2nc(-c3ccc(S(=O)(=O)N4CCOCC4)cc3)cs2)cc1 | inconclusive: -44.3%
55 | O=C(Nc1ccccc1N1CCN(c2ccc(F)cc2)CC1)C1CCCCC1 | inactive: 2.6%
56 | CC(NC(=S)NC1CCCCC1)c1ccccc1 (stereo unspecified) | inconclusive: -53.8%
57 | COc1ccc(CCN2CCC(CNC(=O)c3cnn(-c4ccccc4)c3C3CCN(C(=O)OC(C)(C)C)CC3)CC2)cc1 | inconclusive: 0%
58 | COc1cc(C2c3c(n[nH]c3C)C(=O)N2c2ccc(Br)cc2)ccc1O (stereo unspecified) | inactive: 9.71%
59 | CN(C)S(=O)(=O)N1CCC(Oc2ccc(C(=O)NC3Cc4ccccc4C3)cc2)CC1 | active: -81.5%
60 | CS(=O)(=O)N(Cc1ccc(Cl)cc1)c1ccc(C(=O)Nc2cccnc2)cc1 | inconclusive: -43.6%
61 | CNC(C)Cc1ccccc1 (stereo unspecified) | inconclusive: -46%
62 | NC(=O)c1ccc(-n2nnnc2SCC(=O)Nc2ccccc2F)cc1 | inactive: 61.7%
63 | CN1CCN(C(=O)C[C@H]2C[C@H]3c4cc(NC(=O)NC5CCCCC5)ccc4O[C@H]3[C@@H](CO)O2)CC1 | inactive: 5.03%
64 | COc1ccc(NC(=O)CNCCC2=CCCCC2)cc1 | inactive: -22.1%
65 | Cc1ccc(Nc2cnn(C34CC5CC(CC(CC(=O)O)(C5)C3)C4)c(=O)c2Cl)c(Cl)c1 | inconclusive: -58.6%
66 | Cc1nc2cc(NC(=O)N3CCN(c4ccccn4)CC3)ccc2o1 | inactive: -28.7%

Some of the entries above, set out differently:
Row	SMILES	activity change, negative = inhibition
54	Cc1ccc(Nc2nc(-c3ccc(S(=O)(=O)N4CCOCC4)cc3)cs2)cc1	inconclusive: -44.3%
55	O=C(Nc1ccccc1N1CCN(c2ccc(F)cc2)CC1)C1CCCCC1	inactive: 2.6%

(list continues)

Row | SMILES | activity change, negative = inhibition
67 | N#Cc1ccccc1NC(=O)COc1c(Br)cc(Br)c2cccnc12 | inactive: 85.2%
68 | O=C(CCc1nnc2ccc(NCc3ccccc3Cl)nn12)NCC1CCN(C2CCCC2)C1 (stereo unspecified) | inconclusive: -48.1%
69 | C/C(=N\NC(=O)c1cc(C2CC2)nc2ccccc12)c1ccc(C)s1 | inactive: -3.96%
70 | Cc1cc(=O)oc2cc(OCC(=O)NCCCn3ccnc3)ccc12 | inconclusive: -57.8%
71 | CCOC(=O)c1cccc(NC(=O)Nc2ccc(OCC)cc2)c1 | inactive: 35.7%
72 | C#CCNC(=O)C[C@@H]1C[C@@]2(C(=O)OCC)CCCC=C2N(CCCCCCCC)C1=O | inactive: -17.3%
73 | CCSCCOC(=O)C1=C(C)NC(=O)NC1c1cccc(OC)c1OC (stereo unspecified) | inconclusive: -53.7%
74 | CCSc1ccc2cc(OC)ccc2[n+]1CC | inconclusive: -40.1%
75 | Cc1cc(C(C)(C)C)cc(C)c1Cn1c2[n+](c3ccc(C(F)(F)F)cc31)CCCCC2 | active: -94.6%
76 | Cc1ccc(S(=O)(=O)N2CCN(S(=O)(=O)N3CCCCC3)CC2)c(C)c1 | inconclusive: -51.3%
77 | CC1CCN(C(=O)c2ccc(S(=O)(=O)Cc3ccccc3F)c([N+](=O)[O-])c2)CC1 | active: -75.7%
78 | CC1CN(S(=O)(=O)c2cccc(C(=O)N(C)C3CCCCC3)c2)CC(C)O1 (stereo unspecified) | inconclusive: -45.7%
79 | Cc1ccc(NC(=O)CCn2c(=O)[nH]c3ccsc3c2=O)cc1F | inconclusive: -46.1%
80 | Cn1c(O)c(C=NC2CCN(Cc3ccccc3)CC2)c(=O)n(C)c1=O | inconclusive: -52.6%
81 | O=C(Nc1ccccc1Cl)Nc1cccnc1Cl | active: -61.5%
82 | CCOC(=O)c1ccccc1NC(=O)N1CCOc2ccc(Cl)cc21 | active: -60.6%
83 | Cc1cc(C)n2[nH]c(=O)c(N=Nc3ccccc3)c2n1 | inactive: 6.58%
84 | CC1CCc2cc(F)ccc2N1C(=O)CSc1nnc(-c2cccs2)n1C (stereo unspecified) | inconclusive: -50.1%
85 | CCOc1cc(N2CCOCC2)c(OCC)cc1NC(=O)Cc1ccccc1OC | active: -61%
86 | Cc1cccc(C(=O)Nc2nc(-c3nnn(-c4cc(F)ccc4F)c3C)ns2)c1 | inactive: -26.1%
